Measurements: the supplement of paper PMC10849652
The other results are listed elsewhere or left out.

Amino acid sequences for entries named in this document (tags omitted). A change or cut given only in a name is not applied to a line headed by its entry.
UniProt Q96A46: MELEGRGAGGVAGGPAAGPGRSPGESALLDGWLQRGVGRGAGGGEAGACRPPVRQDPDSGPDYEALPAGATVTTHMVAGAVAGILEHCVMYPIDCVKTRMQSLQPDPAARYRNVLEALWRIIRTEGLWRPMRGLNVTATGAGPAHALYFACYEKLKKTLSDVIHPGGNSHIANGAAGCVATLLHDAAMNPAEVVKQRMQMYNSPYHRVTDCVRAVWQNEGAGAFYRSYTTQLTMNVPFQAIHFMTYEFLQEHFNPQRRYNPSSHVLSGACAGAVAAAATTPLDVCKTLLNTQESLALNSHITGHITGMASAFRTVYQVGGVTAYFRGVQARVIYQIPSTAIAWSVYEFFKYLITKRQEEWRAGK
UniProt Q96A29: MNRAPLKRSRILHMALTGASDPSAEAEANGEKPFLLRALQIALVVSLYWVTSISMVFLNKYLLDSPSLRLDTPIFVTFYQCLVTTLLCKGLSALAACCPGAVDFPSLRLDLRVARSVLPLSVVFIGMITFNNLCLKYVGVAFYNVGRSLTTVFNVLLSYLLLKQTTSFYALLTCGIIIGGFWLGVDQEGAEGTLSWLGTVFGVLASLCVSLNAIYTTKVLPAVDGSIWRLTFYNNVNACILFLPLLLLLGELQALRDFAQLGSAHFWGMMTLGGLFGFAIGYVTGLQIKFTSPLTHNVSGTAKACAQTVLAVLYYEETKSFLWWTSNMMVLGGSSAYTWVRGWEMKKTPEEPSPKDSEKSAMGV
UniProt O15431: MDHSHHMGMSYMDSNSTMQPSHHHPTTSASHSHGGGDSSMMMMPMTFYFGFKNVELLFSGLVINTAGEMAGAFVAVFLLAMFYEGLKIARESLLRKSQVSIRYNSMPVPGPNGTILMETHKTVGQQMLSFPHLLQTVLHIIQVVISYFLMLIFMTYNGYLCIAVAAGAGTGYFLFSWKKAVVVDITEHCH
UniProt P09131: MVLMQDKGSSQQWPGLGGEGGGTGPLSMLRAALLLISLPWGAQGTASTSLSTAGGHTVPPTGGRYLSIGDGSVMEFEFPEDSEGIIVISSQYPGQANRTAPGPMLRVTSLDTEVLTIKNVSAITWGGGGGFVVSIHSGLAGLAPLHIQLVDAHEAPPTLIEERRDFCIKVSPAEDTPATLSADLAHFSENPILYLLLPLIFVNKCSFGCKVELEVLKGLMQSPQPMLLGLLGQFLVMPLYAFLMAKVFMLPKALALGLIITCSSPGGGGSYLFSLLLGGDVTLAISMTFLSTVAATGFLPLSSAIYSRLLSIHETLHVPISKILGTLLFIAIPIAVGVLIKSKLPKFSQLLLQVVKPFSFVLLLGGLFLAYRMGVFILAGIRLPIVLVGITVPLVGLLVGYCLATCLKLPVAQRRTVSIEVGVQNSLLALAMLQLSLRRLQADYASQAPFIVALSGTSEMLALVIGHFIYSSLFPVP
UniProt Q9NQQ7: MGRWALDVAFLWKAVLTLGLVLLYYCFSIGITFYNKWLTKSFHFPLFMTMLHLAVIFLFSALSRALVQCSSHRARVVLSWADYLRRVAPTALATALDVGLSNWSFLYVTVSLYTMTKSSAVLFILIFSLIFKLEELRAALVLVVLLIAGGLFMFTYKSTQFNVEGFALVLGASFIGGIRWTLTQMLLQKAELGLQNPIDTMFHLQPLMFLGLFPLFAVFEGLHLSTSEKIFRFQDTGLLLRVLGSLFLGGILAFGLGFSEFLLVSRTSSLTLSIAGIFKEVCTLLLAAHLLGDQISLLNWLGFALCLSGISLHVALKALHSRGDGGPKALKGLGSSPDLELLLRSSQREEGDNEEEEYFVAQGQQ
UniProt Q9BRV3: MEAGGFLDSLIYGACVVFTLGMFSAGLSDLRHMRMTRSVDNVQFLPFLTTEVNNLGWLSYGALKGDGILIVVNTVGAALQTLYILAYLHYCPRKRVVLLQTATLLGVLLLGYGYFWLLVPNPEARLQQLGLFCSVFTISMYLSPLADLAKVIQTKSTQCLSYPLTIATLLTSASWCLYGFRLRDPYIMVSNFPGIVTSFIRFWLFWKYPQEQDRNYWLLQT
UniProt Q9BS91: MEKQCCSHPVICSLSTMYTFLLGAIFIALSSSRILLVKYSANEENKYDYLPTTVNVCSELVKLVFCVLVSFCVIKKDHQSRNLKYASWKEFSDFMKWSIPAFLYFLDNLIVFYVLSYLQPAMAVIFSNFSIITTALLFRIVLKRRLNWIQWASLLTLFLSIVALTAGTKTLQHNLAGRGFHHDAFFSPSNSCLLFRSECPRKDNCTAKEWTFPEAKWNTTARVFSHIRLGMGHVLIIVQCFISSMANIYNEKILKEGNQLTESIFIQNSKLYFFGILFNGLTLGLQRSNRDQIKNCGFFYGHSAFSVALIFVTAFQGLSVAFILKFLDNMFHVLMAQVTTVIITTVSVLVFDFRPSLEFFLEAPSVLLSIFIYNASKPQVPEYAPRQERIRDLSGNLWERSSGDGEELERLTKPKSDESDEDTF
UniProt Q9Y2P4: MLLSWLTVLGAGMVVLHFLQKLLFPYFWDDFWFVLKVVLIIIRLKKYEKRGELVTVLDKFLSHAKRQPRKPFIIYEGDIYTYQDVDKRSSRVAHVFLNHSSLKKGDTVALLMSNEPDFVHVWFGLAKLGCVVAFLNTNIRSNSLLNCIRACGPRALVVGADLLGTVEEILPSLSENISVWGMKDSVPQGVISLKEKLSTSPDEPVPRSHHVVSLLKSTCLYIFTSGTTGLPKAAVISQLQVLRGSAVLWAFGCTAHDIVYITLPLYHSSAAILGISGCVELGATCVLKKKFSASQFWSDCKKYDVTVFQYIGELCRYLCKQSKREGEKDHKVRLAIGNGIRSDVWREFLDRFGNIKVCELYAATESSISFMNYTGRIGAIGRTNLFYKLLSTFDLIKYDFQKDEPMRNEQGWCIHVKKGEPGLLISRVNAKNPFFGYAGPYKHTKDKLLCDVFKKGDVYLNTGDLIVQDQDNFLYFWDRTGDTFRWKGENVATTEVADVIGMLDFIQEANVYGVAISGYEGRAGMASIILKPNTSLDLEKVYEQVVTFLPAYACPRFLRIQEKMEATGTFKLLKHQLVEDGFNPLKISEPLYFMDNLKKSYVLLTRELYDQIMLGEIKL
UniProt Q2M3R5: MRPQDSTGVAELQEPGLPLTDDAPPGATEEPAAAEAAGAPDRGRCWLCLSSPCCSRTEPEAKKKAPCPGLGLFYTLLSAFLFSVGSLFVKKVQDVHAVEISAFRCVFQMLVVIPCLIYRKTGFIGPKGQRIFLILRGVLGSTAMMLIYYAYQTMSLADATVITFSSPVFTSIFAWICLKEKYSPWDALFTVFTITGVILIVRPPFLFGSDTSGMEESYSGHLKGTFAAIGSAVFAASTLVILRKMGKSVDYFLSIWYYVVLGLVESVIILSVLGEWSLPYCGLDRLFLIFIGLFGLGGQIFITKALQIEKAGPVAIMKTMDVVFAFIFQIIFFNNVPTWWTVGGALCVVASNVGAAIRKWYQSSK
UniProt Q96QE2: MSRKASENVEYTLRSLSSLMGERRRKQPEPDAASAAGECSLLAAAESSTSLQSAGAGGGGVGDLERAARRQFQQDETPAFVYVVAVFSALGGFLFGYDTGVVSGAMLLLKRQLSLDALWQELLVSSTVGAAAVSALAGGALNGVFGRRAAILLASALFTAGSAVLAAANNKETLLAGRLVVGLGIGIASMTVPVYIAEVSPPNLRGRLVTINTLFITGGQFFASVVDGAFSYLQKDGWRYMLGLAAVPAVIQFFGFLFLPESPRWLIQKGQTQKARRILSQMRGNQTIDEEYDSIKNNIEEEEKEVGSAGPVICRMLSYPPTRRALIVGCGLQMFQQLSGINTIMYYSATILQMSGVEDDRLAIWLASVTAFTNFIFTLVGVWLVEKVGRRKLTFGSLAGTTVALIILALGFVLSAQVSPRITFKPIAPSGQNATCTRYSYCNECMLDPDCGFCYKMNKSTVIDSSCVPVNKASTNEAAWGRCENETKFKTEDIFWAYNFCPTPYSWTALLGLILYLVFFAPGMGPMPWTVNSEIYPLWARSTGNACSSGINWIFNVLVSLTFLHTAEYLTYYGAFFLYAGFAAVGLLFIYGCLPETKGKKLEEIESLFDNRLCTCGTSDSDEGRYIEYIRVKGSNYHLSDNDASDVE
UniProt Q9NY26: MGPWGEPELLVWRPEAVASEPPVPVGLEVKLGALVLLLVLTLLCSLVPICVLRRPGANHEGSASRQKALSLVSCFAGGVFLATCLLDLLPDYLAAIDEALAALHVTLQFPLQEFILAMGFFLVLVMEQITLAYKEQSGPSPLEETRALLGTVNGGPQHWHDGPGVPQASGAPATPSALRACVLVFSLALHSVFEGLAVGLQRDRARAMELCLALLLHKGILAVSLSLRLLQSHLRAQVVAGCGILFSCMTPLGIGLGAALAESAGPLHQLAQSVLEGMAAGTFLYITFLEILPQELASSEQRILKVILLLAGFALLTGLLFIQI
UniProt P48751: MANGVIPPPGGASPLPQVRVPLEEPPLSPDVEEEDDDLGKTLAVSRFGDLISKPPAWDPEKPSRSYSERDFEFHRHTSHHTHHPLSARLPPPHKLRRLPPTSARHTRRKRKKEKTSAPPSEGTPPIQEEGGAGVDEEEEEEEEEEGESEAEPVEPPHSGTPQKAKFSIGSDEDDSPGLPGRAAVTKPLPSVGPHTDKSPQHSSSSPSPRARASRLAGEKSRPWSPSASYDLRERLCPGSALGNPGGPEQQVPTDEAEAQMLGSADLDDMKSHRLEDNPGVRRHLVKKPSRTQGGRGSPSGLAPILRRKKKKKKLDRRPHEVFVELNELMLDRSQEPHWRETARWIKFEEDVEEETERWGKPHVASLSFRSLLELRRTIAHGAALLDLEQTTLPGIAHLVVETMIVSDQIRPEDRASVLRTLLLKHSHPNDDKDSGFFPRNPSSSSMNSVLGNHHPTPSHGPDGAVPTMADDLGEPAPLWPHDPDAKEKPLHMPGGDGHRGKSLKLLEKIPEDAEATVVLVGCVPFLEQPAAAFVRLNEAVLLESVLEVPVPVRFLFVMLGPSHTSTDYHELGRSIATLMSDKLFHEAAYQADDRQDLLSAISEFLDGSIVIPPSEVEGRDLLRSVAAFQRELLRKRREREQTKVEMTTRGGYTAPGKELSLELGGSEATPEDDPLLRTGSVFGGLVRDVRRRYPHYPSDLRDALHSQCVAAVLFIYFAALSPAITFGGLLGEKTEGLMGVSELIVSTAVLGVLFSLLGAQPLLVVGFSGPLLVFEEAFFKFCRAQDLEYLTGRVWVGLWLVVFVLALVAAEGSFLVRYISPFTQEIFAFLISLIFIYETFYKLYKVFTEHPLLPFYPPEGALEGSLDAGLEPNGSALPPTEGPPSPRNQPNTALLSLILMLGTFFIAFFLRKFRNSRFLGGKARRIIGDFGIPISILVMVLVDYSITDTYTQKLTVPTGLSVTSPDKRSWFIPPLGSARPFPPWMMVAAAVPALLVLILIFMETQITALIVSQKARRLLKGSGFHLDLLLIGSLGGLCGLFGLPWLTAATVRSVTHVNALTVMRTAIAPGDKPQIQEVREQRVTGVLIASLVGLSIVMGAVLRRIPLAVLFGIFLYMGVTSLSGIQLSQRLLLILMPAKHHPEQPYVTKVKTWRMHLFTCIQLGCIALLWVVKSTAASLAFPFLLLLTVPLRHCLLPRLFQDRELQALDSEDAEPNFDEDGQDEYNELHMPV
UniProt Q695T7: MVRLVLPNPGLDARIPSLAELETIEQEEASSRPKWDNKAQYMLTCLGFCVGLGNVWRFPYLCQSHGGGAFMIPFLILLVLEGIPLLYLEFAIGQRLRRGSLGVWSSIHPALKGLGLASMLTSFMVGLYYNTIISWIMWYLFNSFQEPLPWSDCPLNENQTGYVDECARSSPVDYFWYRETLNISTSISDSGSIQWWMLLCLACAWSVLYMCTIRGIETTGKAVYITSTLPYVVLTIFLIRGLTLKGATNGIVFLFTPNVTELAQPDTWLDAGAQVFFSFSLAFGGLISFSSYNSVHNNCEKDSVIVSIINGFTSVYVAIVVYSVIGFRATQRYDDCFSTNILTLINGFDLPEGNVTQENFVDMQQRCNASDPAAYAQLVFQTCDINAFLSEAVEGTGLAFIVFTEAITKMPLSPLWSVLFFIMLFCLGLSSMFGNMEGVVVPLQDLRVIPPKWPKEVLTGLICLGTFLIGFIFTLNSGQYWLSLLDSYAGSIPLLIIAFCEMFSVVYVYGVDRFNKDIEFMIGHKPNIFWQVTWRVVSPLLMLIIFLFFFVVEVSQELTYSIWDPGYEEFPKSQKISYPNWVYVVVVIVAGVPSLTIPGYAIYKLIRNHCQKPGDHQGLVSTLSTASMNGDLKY
UniProt Q8N8R3: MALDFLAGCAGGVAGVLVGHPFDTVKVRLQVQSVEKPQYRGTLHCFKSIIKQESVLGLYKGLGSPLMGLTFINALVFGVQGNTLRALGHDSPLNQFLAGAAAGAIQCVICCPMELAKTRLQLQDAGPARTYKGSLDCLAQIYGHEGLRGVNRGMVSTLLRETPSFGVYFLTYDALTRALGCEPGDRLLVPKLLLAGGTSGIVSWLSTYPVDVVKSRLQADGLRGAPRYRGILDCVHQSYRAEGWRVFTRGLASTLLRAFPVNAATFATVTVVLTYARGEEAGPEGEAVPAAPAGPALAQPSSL

Columns and labels:
Experiment in all cases: log2 fold change, soluble protein after heating vs DMSO (PISA); higher = thermal stabilisation; K562 cells, 10 uM, 30 min; active = over 0.2 and 3.5 SD of the protein, either way, in both replicates (recomputed)
[1] = compound: COC1=CC=C(C=C1)CN2C=CC3=C2C=C(C=C3)C(=O)NO
Outline: (§1)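 Quantification of soluble protein used TMTpro 16plex LC-MS/MS, with channel sums equalised. Samples were the supernatant after 21,000xg for 90 min of pooled aliquots from K562 cells (2×10^6 cells/mL) treated with 10 μM compound for 30 min, heated for 3 min over 48°C-58°C, and extracted in PBS with 0.5% NP-40 at 4°C. Values, from duplicates, describe thermal stability against control samples on a log2 fold-change scale.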

alisertib = compound: COc1cc(Nc2ncc3c(n2)-c2ccc(Cl)cc2C(c2c(F)cccc2OC)=NC3)ccc1C(=O)O [alisertib]
Outline: as §1

gefitinib = compound: COc1cc2ncnc(Nc3ccc(F)c(Cl)c3)c2cc1OCCCN1CCOCC1 [gefitinib]
Outline: as §1

[2] = compound: COc1cccc2cc(-c3nc([C@H]4CC[C@H](C(=O)O)CC4)n4ncnc(N)c34)[nH]c12
Outline: as §1

pictilisib = compound: CS(=O)(=O)N1CCN(Cc2cc3nc(-c4cccc5[nH]ncc45)nc(N4CCOCC4)c3s2)CC1 [pictilisib]
Outline: as §1

zotarolimus = compound: CO[C@H]1C[C@@H]2CC[C@@H](C)[C@@](O)(O2)C(=O)C(=O)N2CCCC[C@H]2C(=O)O[C@H]([C@H](C)C[C@@H]2CC[C@H](n3cnnn3)[C@H](OC)C2)CC(=O)[C@H](C)/C=C(\C)[C@@H](O)[C@@H](OC)C(=O)[C@H](C)C[C@H](C)/C=C/C=C/C=C/1C [zotarolimus]
Outline: as §1

idasanutlin = compound: COc1cc(C(=O)O)ccc1NC(=O)[C@@H]1N[C@@H](CC(C)(C)C)[C@](C#N)(c2ccc(Cl)cc2F)[C@H]1c1cccc(Cl)c1F [idasanutlin]
Outline: as §1

[3] = compound: COc1cc2nc(-c3cc(F)ccc3O)nc(N[C@@H]3CNC[C@H]3C(C)(C)O)c2cc1OC
Outline: as §1

lapatinib = compound: CS(=O)(=O)CCNCc1ccc(-c2ccc3ncnc(Nc4ccc(OCc5cccc(F)c5)c(Cl)c4)c3c2)o1 [lapatinib]
Outline: as §1

filanesib = compound: CON(C)C(=O)N1N=C(c2cc(F)ccc2F)S[C@@]1(CCCN)c1ccccc1 [filanesib]
Outline: as §1

Measured: log2 fold change

SLC26A2 (UniProt P50443)
inactive: [1] -0.04 | alisertib -0.36 | gefitinib -0.134 | [2] -0.037 | pictilisib 0.051

SLC1A3 (UniProt P43003)
inactive: zotarolimus -0.097 | idasanutlin 0 | alisertib 0.017 | [3] 0.118 | gefitinib -0.023 | [2] 0.012 | lapatinib -0.03 | pictilisib 0.02

SLC43A3 (UniProt Q8NBI5)
inactive: filanesib 0.269 | [3] 0.045 | lapatinib 0.03

SLC35E3 (UniProt Q7Z769)
inactive: filanesib -0.308 | idasanutlin -0.123 | [3] 0.217 | gefitinib -0.109 | lapatinib -0.132

SLC25A28 (UniProt Q96A46)
inactive: filanesib -0.101 | [3] 0.069 | gefitinib -0.073 | lapatinib -0.076

SLC35C1 (UniProt Q96A29)
inactive: [1] 0.001 | zotarolimus -0.056 | idasanutlin 0.002 | [3] 0.068 | gefitinib -0.042 | lapatinib -0.111 | pictilisib -0.001

SLC36A4 (UniProt Q6YBV0)
inactive: alisertib 0.068 | [2] 0.215

SLC35F6 (UniProt Q8N357)
inactive: filanesib -0.001 | zotarolimus 0.016 | idasanutlin 0.02 | alisertib -0.052 | [3] 0.033 | gefitinib 0 | [2] 0.037 | lapatinib -0.076

SLC31A1 (UniProt O15431)
inactive: [1] -0.004 | zotarolimus -0.089 | idasanutlin -0.069 | alisertib 0.082 | [3] -0.008 | [2] 0.013 | lapatinib 0.038 | pictilisib -0.215

SLC10A3 (UniProt P09131)
inactive: alisertib 0.019 | gefitinib 0.004 | [2] -0.204

SLC25A35 (UniProt Q3KQZ1)
inactive: [1] -0.207 | zotarolimus 0.006 | idasanutlin 0.002 | [3] 0.048 | lapatinib -0.212 | pictilisib 0.15

SLC35C2 isoform 3 (UniProt Q9NQQ7)
inactive: [1] -0.103 | zotarolimus -0.014 | idasanutlin 0.017 | gefitinib -0.085

SLC66A2 (UniProt Q8N2U9)
inactive: alisertib -0.002 | gefitinib 0.139 | [2] -0.281

SLC3A2 (UniProt F5H867)
inactive: filanesib 0.171 | alisertib -0.024 | [3] 0.133 | gefitinib 0.269 | [2] 0.01 | lapatinib -0.151 | pictilisib 0.17

SLC52A2 (UniProt Q9HAB3)
inactive: alisertib -0.279 | gefitinib 0.092 | [2] 0.073 | pictilisib 0.142

SLC50A1 (UniProt Q9BRV3)
inactive: [1] -0.104 | idasanutlin -0.313 | alisertib -0.132 | [3] 0.379 | [2] 0.039 | lapatinib 0.367

SLC35A5 (UniProt Q9BS91)
inactive: zotarolimus -0.031 | idasanutlin -0.104

SLC27A6 (UniProt Q9Y2P4)
inactive: zotarolimus -0.02 | alisertib -0.072 | gefitinib 0.001 | [2] 0.008

SLC3A2 (UniProt F5GZS6)
inactive: [1] -0.085 | idasanutlin -0.119 | alisertib -0.017 | [3] 0.029 | gefitinib -0.025 | [2] 0.043 | lapatinib 0.033

SLC35G1 (UniProt Q2M3R5)
inactive: idasanutlin -0.172

SLC39A3 (UniProt Q9BRY0)
inactive: filanesib -0.115 | zotarolimus -0.152 | idasanutlin -0.04 | alisertib 0.055 | [3] 0.027 | gefitinib 0.001 | [2] 0.06 | lapatinib -0.2 | pictilisib 0.069

SLC2A13 (UniProt Q96QE2)
inactive: filanesib -0.055 | zotarolimus -0.01 | idasanutlin 0.045 | [3] 0.081 | lapatinib -0.052 | pictilisib 0.152

SLC22A23 (UniProt A1A5C7)
inactive: [1] -0.037 | zotarolimus 0.178 | alisertib 0.059 | [3] 0.25 | [2] -0.042 | lapatinib -0.167 | pictilisib -0.036

SLC39A1 (UniProt Q9NY26)
inactive: zotarolimus -0.15 | pictilisib -0.053

SLC35D1 (UniProt Q9NTN3)
inactive: zotarolimus 0.051 | idasanutlin -0.105 | [3] 0.066 | lapatinib 0.112

SLC39A8 (UniProt Q9C0K1)
inactive: filanesib -0.117 | zotarolimus -0.018 | idasanutlin -0.046 | alisertib -0.05 | [3] 0.018 | gefitinib -0.057 | [2] 0.067 | lapatinib -0.047 | pictilisib -0.142

SLC4A3 isoform 3 (UniProt P48751)
inactive: idasanutlin -0.283 | alisertib -0.009 | gefitinib 0.006 | [2] 0

SLC10A7 isoform 1 (UniProt Q0GE19)
inactive: idasanutlin -0.027 | alisertib -0.11 | [3] 0.034 | gefitinib -0.325 | [2] 0.149 | lapatinib 0.059

SLC39A9 (UniProt Q9NUM3)
inactive: zotarolimus 0.1

SLC6A19 (UniProt Q695T7)
inactive: zotarolimus -0.059 | alisertib -0.146 | [3] -0.216 | [2] 0.156 | lapatinib 0.05

SLC2A4 (UniProt P14672)
inactive: filanesib 0 | zotarolimus -0.053 | idasanutlin -0.093 | alisertib -0.099 | [3] -0.023 | gefitinib 0.001 | [2] 0.033 | lapatinib -0.064 | pictilisib 0.096

SLC22A4 (UniProt Q9H015)
inactive: zotarolimus -0.037 | idasanutlin 0.03 | [3] 0.035 | lapatinib -0.059

SLC25A29 (UniProt Q8N8R3)
inactive: [1] -0.022 | [3] -0.108 | lapatinib 0.191
